# Results reported in doi:10.1101/2020.02.20.955922.
# T1: TSN2-TAPa (Tudor Staphylococcal Nuclease 2 with C-terminal TAPa tag) (Arabidopsis thaliana) (UniProt Q9FLT0)
# T1 sequence: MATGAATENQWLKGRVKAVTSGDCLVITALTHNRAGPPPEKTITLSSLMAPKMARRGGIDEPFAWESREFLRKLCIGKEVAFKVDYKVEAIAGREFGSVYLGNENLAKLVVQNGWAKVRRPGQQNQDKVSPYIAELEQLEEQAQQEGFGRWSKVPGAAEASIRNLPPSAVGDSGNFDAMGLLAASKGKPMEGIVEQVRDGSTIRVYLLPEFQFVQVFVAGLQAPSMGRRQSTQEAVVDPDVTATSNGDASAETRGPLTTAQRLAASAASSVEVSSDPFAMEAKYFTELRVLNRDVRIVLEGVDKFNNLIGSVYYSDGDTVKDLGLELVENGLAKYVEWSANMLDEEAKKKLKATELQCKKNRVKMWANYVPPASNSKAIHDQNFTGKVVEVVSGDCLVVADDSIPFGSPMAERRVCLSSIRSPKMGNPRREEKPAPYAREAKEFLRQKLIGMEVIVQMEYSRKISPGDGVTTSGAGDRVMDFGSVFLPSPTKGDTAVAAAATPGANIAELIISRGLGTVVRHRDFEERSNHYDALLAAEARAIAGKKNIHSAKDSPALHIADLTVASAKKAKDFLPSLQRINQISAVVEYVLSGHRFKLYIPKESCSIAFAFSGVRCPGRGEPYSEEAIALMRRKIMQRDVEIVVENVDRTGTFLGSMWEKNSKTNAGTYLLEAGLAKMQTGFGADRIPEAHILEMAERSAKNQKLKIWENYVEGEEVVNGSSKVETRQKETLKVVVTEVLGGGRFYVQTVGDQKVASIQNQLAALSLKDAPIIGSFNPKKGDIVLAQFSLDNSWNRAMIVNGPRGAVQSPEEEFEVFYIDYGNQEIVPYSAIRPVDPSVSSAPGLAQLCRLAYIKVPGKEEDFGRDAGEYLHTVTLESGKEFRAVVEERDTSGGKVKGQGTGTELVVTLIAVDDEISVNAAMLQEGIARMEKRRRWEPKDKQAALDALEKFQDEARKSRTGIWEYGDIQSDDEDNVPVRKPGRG
# T2: TSN1-TAPa (Tudor Staphylococcal Nuclease 1 with C-terminal TAPa tag) (Arabidopsis thaliana) (UniProt Q8VZG7)
# T2 sequence: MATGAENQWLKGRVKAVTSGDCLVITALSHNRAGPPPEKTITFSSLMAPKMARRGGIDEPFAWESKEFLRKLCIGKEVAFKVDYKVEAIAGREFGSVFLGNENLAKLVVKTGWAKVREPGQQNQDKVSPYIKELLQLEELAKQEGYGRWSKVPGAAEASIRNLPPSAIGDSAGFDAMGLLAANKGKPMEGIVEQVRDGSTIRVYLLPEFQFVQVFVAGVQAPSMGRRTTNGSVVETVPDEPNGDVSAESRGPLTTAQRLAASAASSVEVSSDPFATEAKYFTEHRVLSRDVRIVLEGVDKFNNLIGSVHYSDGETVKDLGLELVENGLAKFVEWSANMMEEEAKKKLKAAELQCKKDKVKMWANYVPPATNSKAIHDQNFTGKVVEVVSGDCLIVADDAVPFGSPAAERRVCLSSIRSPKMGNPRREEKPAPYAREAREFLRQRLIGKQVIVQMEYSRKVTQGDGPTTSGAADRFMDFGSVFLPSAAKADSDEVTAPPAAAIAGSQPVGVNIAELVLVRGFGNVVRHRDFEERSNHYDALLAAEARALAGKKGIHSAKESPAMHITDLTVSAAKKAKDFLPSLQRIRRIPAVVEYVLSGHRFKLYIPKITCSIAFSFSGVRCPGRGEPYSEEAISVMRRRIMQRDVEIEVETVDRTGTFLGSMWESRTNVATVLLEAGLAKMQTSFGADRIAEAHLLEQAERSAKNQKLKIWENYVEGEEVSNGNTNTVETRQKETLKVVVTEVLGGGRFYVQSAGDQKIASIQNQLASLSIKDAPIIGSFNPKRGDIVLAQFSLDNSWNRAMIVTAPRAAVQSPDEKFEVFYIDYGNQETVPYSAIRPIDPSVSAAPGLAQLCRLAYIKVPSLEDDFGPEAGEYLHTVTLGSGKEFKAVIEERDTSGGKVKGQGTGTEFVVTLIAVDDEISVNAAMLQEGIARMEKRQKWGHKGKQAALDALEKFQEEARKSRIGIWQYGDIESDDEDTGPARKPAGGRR
# Legend:
# [1] = target: T1, TSN2-TAPa (Tudor Staphylococcal Nuclease 2 with C-terminal TAPa tag) (Arabidopsis thaliana); assay: affinity purification with mass spectrometry
# [2] = target: T2, TSN1-TAPa (Tudor Staphylococcal Nuclease 1 with C-terminal TAPa tag) (Arabidopsis thaliana); assay: affinity purification with mass spectrometry
Binder,binding [1],binding [2]
"PAB8 (protein, UniProt Q9FXA2 1-671) MAQIQHQGQNANGGVAVPGAAAAEAAAAAAGAAAAAAGAAQQGTTSLYVGDLDATVTDSQLFEAFTQAGQVVSVRVCRDMTTRRSLGYGYVNYATPQDASRALNELNFMALNGRAIRVMYSVRDPSLRKSGVGNIFIKNLDKSIDHKALHETFSAFGPILSCKVAVDPSGQSKGYGFVQYDTDEAAQGAIDKLNGMLLNDKQVYVGPFVHKLQRDPSGEKVKFTNVYVKNLSESLSDEELNKVFGEFGVTTSCVIMRDGEGKSKGFGFVNFENSDDAARAVDALNGKTFDDKEWFVGKAQKKSERETELKQKFEQSLKEAADKSQGSNLYVKNLDESVTDDKLREHFAPFGTITSCKVMRDPSGVSRGSGFVAFSTPEEATRAITEMNGKMIVTKPLYVALAQRKEDRKARLQAQFSQMRPVNMPPAVGPRMQMYPPGGPPMGQQLFYGQGPPAMIPQPGFGYQQQLVPGMRPGGSPMPNFFMPMMQQGQQQQQQQQQQQRPGGGRRGALPQPQQPSPMMQQQMHPRGRMYRYPQRDVNTMPGPTQNMLSVPYDVSSGGGVHHRDSPTSQPVPIVALATRLANAAPEQQRTMLGENLYPLVEQLEPESAAKVTGMLLEMDQTEVLHLLESPEALKAKVTEAMDVLRSVAQQQAGGAADQLASLSLGDNIVP",binds,
"PAB4 (protein, UniProt O22173 1-662) MAQVQAPSSHSPPPPAVVNDGAATASATPGIGVGGGGDGVTHGALCSLYVGDLDFNVTDSQLYDYFTEVCQVVSVRVCRDAATNTSLGYGYVNYSNTDDAEKAMQKLNYSYLNGKMIRITYSSRDSSARRSGVGNLFVKNLDKSVDNKTLHEAFSGCGTIVSCKVATDHMGQSRGYGFVQFDTEDSAKNAIEKLNGKVLNDKQIFVGPFLRKEERESAADKMKFTNVYVKNLSEATTDDELKTTFGQYGSISSAVVMRDGDGKSRCFGFVNFENPEDAARAVEALNGKKFDDKEWYVGKAQKKSERELELSRRYEQGSSDGGNKFDGLNLYVKNLDDTVTDEKLRELFAEFGTITSCKVMRDPSGTSKGSGFVAFSAASEASRVLNEMNGKMVGGKPLYVALAQRKEERRAKLQAQFSQMRPAFIPGVGPRMPIFTGGAPGLGQQIFYGQGPPPIIPHQPGFGYQPQLVPGMRPAFFGGPMMQPGQQGPRPGGRRSGDGPMRHQHQQPMPYMQPQMMPRGRGYRYPSGGRNMPDGPMPGGMVPVAYDMNVMPYSQPMSAGQLATSLANATPAQQRTLLGESLYPLVDQIESEHAAKVTGMLLEMDQTEVLHLLESPEALNAKVSEALDVLRNVNQPSSQGSEGNKSGSPSDLLASLSINDHL",binds,binds
"DEAD-box ATP-dependent RNA helicase 12 (RH12), endogenous (protein, UniProt Q9M2E0 1-498) MNTNRGRYPPGVGTGRGAPPNPDYHQSYRQQQPPQDQQYVQRGYSQNPQQMQLQQQHQQQQQQQQWSRRPQLPGNASNANEVVQQTTQPEASSDANGQDWKATLRLPPPDTRYQTADVTATKGNEFEDYFLKRDLLKGIYEKGFEKPSPIQEESIPIALTGSDILARAKNGTGKTGAFCIPVLEKIDPNNNVIQAMILVPTRELALQTSQVCKELSKYLNIQVMVTTGGTSLRDDIMRLHQPVHLLVGTPGRILDLTKKGVCVLKDCAMLVMDEADKLLSAEFQPSLEELIQFLPQNRQFLMFSATFPVTVKAFKDRHLRKPYVINLMDQLTLMGVTQYYAFVEERQKVHCLNTLFSKLQINQSIIFCNSVNRVELLAKKITELGYSCFYIHAKMVQDHRNRVFHEFRNGACRNLVCTDLFTRGIDIQAVNVVINFDFPRTSESYLHRVGRSGRFGHLGLAVNLVTYEDRFKMYQTEQELGTEIKPIPSNIDQAIYCQ",binds,binds
"SKD1 (protein, UniProt Q9ZNT0 1-435) MYSNFKEQAIEYVKQAVHEDNAGNYNKAFPLYMNALEYFKTHLKYEKNPKIREAITQKFTEYLRRAEEIRAVLDEGGSGPGSNGDAAVATRPKTKPKDGEGGGKDGEDPEQSKLRAGLNSAIVREKPNIKWSDVAGLESAKQALQEAVILPVKFPQFFTGKRRPWRAFLLYGPPGTGKSYLAKAVATEADSTFFSVSSSDLVSKWMGESEKLVSNLFEMARESAPSIIFVDEIDSLCGTRGEGNESEASRRIKTELLVQMQGVGHNDEKVLVLAATNTPYALDQAIRRRFDKRIYIPLPEAKARQHMFKVHLGDTPHNLTEPDFEYLGQKTEGFSGSDVSVCVKDVLFEPVRKTQDAMFFFKSPDGTWMPCGPRHPGAIQTTMQDLATKGLAEKIIPPPITRTDFEKVLARQRPTVSKSDLDVHERFTQEFGEEG",binds,

# These are yes or no findings as the source states them, for the method shown. In cells and extracts the contact can be indirect. These calls come from enrichment with a bait or labelling near it, and not all partners need be listed. Sequences can lack the tags named with a protein.
